Test results: patent US10023882B1, “Hetero-oligomers of (S)-carbonyl reductases and their applications in catalyzing reduction of polyphenyl ketones” (Jiangnan University, priority 2017, dated 2018)
No constants are given. Whether binding was seen depends on the method and setting. Binding seen in cells or lysates may run through a third protein. Some results given as binding are weak or reduced against the parent protein; the word gives no strength. Tags and fused reporters may be left off the sequences shown.

Tests used:
[1] = target: T1, His-SCR3, (S)-carbonyl reductase SCR3 of Candida parapsilosis with N-terminal His-tag, expressed from pET28-His-SCR3 (Candida parapsilosis) (UniProt G8BHG5); assay: pull-down by two affinity tags after co-expression in E. coli
T1 sequence: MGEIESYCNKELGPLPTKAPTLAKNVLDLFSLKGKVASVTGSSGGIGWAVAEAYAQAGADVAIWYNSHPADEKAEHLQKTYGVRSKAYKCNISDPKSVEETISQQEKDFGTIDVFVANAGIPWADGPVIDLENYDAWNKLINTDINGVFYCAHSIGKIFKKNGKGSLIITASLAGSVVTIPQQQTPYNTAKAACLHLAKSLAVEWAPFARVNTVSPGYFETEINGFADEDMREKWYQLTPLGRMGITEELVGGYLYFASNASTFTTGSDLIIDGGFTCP

[2] = target: T1, His-SCR3, (S)-carbonyl reductase SCR3 of Candida parapsilosis with N-terminal His-tag, expressed from pET28-His-SCR3 (Candida parapsilosis); assay: tandem affinity purification: Ni-NTA eluate (His-tag) loaded on Streptrap HP column (Strep-tag), co-purification
[3] = target: T2, His-SCR2, (S)-carbonyl reductase SCR2 of Candida parapsilosis with N-terminal His-tag, expressed from pET28-His-SCR2 (Candida parapsilosis) (UniProt G8BHG4); assay: pull-down by two affinity tags after co-expression in E. coli
T2 sequence: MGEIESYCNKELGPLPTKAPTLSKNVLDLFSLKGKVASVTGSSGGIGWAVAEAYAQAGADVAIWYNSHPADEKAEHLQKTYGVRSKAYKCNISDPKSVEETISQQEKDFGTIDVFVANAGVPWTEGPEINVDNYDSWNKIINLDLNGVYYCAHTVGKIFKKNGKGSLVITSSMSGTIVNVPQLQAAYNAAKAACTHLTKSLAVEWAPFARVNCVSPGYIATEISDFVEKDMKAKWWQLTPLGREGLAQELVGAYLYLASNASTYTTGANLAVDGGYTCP

[4] = target: T2, His-SCR2, (S)-carbonyl reductase SCR2 of Candida parapsilosis with N-terminal His-tag, expressed from pET28-His-SCR2 (Candida parapsilosis); assay: tandem affinity purification: Ni-NTA eluate (His-tag) loaded on Streptrap HP column (Strep-tag), co-purification

B1: Strep-SCR2, (S)-carbonyl reductase SCR2 of Candida parapsilosis with N-terminal Strep-tag, expressed from pET21-Strep-SCR2 (protein)
chain: MGEIESYCNKELGPLPTKAPTLSKNVLDLFSLKGKVASVTGSSGGIGWAVAEAYAQAGADVAIWYNSHPADEKAEHLQKTYGVRSKAYKCNISDPKSVEETISQQEKDFGTIDVFVANAGVPWTEGPEINVDNYDSWNKIINLDLNGVYYCAHTVGKIFKKNGKGSLVITSSMSGTIVNVPQLQAAYNAAKAACTHLTKSLAVEWAPFARVNCVSPGYIATEISDFVEKDMKAKWWQLTPLGREGLAQELVGAYLYLASNASTYTTGANLAVDGGYTCP
With B1 the binding [1] was “binds” and the binding [2] was “binds”.

B2: Strep-SCR, (S)-carbonyl reductase SCR of Candida parapsilosis with N-terminal Strep-tag, expressed from pET21-Strep-SCR (protein)
chain: MGEIESYCNKELGPLPTKAPTLSKNVLDLFSLKGKVASVTGSSGGIGWAVAEAYAQAGADVAIWYNSHPADEKAEHLQKTYGVHSKAYKCNISDPKSVEETISQQEKDFGTIDVFVANAGVTWTQGPEIDVDNYDSWNKIISVDLNGVYYCSHNIGKIFKKNGKGSLIITSSISGKIVNIPQLQAPYNTAKAACTHLAKSLAIEWAPFARVNTISPGYIDTDITDFASKDMKAKWWQLTPLGREGLTQELVGGYLYLASNASTFTTGSDVVIDGGYTCP
For B2, the binding [3] was “binds” and the binding [4] was “binds”.
